Measurements published in the supplement of paper PMC3334620.
Whole data set: some 33,000 sequences, median “E-score (-0.5 to 0.5)” near -0.0059, cut for the highest 2% near 0.26. The list shows a part of the results.

These sequences were tested against T1, Cin5 (UniProt P40917) (assay: PBM E-score (8-mer binding enrichment) (E-score (-0.5 to 0.5)); higher = stronger / more preferred TF binding). Conditions: protein concentration: 100 nM; construct: GST-full length.
T1 sequence: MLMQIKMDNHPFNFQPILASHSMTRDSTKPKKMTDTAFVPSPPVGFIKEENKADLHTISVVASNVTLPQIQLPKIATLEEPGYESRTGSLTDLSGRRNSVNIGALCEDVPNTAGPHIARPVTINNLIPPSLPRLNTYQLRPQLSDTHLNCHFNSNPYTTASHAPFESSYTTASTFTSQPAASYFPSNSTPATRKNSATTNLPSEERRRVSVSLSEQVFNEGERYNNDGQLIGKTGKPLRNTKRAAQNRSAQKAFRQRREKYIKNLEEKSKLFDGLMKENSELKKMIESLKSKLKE
In short: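 E-scores (a modified Wilcoxon-Mann-Whitney statistic) were assigned by the Universal PBM Analysis Suite to every ungapped eight-base word pooled with its reverse complement. The input came from universal all-10-mer Agilent arrays made double-stranded by primer extension and probed with GST-tagged yeast transcription factors at about 100-200 nM. Fluorescent anti-GST detected bound protein, and masliner normalised the scans.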

Row | Sequence | PBM E-score
1 | AACAGGTC | -0.194
2 | CCGATAAA | 0.0523
3 | CACAGACA | -0.0152
4 | GGGTGATA | 0.00865
5 | CTCCTAAG | -0.173
6 | AGGGGCCG | -0.279
7 | ATGCATTG | 0.0335
8 | AAACTGGG | -0.0298
9 | CTATGCCC | -0.127
10 | ATTACGCA | 0.25
11 | ATTCCATG | 0.156
12 | CGAGGTCC | -0.175
13 | AAACCTCT | 0.0865
14 | GACCATCC | -0.11
15 | GATATACA | 0.138
16 | ACTCCGTG | -0.0119
17 | AGAGTCCG | -0.195
18 | ACCTTGTC | -0.156
19 | AGAGTTCC | -0.156
20 | CCTTGGTA | -0.0422
21 | AGCACTAA | 0.057
22 | AGGTAGGC | -0.0632
23 | CACGTCGA | -0.0392
24 | CATTGAGG | -0.0654
25 | CGGGATTC | 0.0661

Reformatted: entries from further up
Row	Sequence	PBM E-score
12	CGAGGTCC	-0.175
14	GACCATCC	-0.11
17	AGAGTCCG	-0.195

(cont.)

Row | Sequence | PBM E-score
26 | AACGCTAA | -0.114
27 | CTTTGGTC | 0.0474
28 | AGTTCTCC | -0.165
29 | GCTTGTAA | 0.0106
30 | CTAAATCC | 0.049
31 | ATCCATGG | -0.0762
32 | CGTATATA | 0.231
33 | CTCACAAG | -0.0133
34 | GAGATCAA | 0.157
35 | AAGCTGAT | 0.209
36 | CCCCGAAG | -0.0267
37 | CCTATAGA | -0.12
38 | ATGTTTCA | 0.0393
39 | GAAGGGAC | -0.213
40 | AAGACCAT | 0.0599
41 | CCGGGACC | -0.0381
42 | GGATCAAA | 0.0839
43 | AAAGACGA | 0.036
44 | GGATCGCC | -0.16
45 | AGGGAGAG | -0.136
46 | GACAGGTA | -0.00656
47 | CACAGCAC | -0.0377
48 | ACAAGTAC | 0.0459
49 | GGCTACAC | -0.205
50 | AGGACAAG | -0.0481

Row | Sequence | PBM E-score
51 | AATTTTCG | -0.0119
52 | CCAACACC | -0.173
53 | AAAACTCC | -0.105
54 | AAAGTGTG | -0.00283
55 | GTCGTAAA | 0.00493
56 | AGAACAAT | 0.24
57 | CGTATAGC | 0.00345
58 | ATTGGGAG | -0.0663
59 | TAGCAATA | 0.111
60 | ACCAAAGA | 0.106
61 | CACTACTC | 0.0701
62 | AATATTTA | 0.217
63 | ATGCACTG | 0.0128
64 | GGCATTGA | -0.00943
65 | AAATTCGA | -0.111
66 | AGATCGAC | -0.0831
67 | TCCACACA | 0.0716
68 | CTAAAAAG | -0.107
69 | CAGTGTCG | -0.141
70 | GCCAAGGC | -0.223
71 | CCAAATGA | 0.155
72 | GCAGTCAA | -0.121
73 | AGCTGGGC | -0.117
74 | GATCATTA | 0.163
75 | AGCGGAAT | 0.0824

Row | Sequence | PBM E-score
76 | CGAACGCC | -0.133
77 | ACACGGTC | -0.197
78 | AGTTACAG | 0.076
79 | CACGATAG | 0.139
80 | CCTGAATA | 0.0939
81 | CACACAGC | 0.0029
82 | AATATTGC | 0.235
83 | AATGACGA | 0.0266
84 | AGCGCTCA | -0.137
85 | CCTTGTCA | -0.0326
86 | AAATGTGA | 0.0813
87 | AGATACTG | 0.219
88 | ACTCTCAC | 0.0634
89 | AATTGCGT | 0.135
90 | CATAATAA | 0.0985
91 | ACCGTATA | -0.0584
92 | ATAGAAAA | 0.199
93 | AAGCCGCT | 0.0612
94 | AGACGGAT | 0.152
95 | CAGAGGCA | -0.109
96 | CGAATTCG | -0.0651
97 | GAACGCGA | 0.176
98 | AGAGCAGA | 0.027
99 | CGCGCACC | -0.0386
100 | ATATGTAC | 0.21

Some of the entries so far, tab-delimited:
Row	Sequence	PBM E-score
49	GGCTACAC	-0.205
50	AGGACAAG	-0.0481

Further results:

Row | Sequence | PBM E-score
101 | CGTCCAGA | -0.219
102 | GCATATCC | 0.0386
103 | AGTATAAT | 0.301
104 | CTCGCCGA | -0.0319
105 | ACGTGTAC | -0.126
106 | AGGCGTTA | -0.05
107 | CAATCCAA | 0.0285
108 | ATCGGATC | 0.00099
109 | CAAAGATA | 0.12
110 | TACTACCA | -0.0521
111 | CCGTGCAG | 0.0325
112 | GACTACTC | 0.0304
113 | ATCTTGCA | 0.203
114 | CCGGACAC | -0.205
115 | GAAGCACC | -0.0572
116 | TGGCCCCA | -0.103
117 | CCTAAGAG | -0.0253
118 | ACTTGGGC | -0.139
119 | AGAGAACC | -0.217
120 | AAATCTTC | -0.00535
121 | GAATTCCA | 0.173
122 | CCGATCGA | -0.0237
123 | AGTCACGC | -0.0563
124 | ACCTGCCT | -0.141
125 | ATACGGAA | 0.232

Row | Sequence | PBM E-score
126 | CTAGATAG | -0.141
127 | TCCCAGGA | -0.158
128 | GATAGAAA | 0.126
129 | ACCGCGAC | -0.104
130 | CCGTAGAA | -0.223
131 | AAGCTTGC | -0.0817
132 | GGACGCTA | -0.24
133 | GGCCCATA | -0.102
134 | CACGTGGG | -0.172
135 | AGAAAATA | 0.191
136 | CCCGGTCC | -0.17
137 | TTAAGAAA | -0.116
138 | AAAAATAA | 0.215
139 | GCTCAAGC | -0.167
140 | ATTCCCGG | 0.243
141 | AGGTAGAG | -0.22
142 | CGGCAGTA | -0.0949
143 | ACAGCGAC | -0.204
144 | ACTTAAAA | -0.0447
145 | ATGCGCGC | 0.193
146 | GTTATCGA | 0.0833
147 | ACGGTTGC | -0.163
148 | AAGGGGCC | -0.118
149 | CTGGCCAA | -0.0305
150 | CGGCTATC | -0.147

Reprinted at random: three entries already listed
Row | Sequence | PBM E-score
135 | AGAAAATA | 0.191
131 | AAGCTTGC | -0.0817
139 | GCTCAAGC | -0.167

The list goes on:

Row | Sequence | PBM E-score
151 | CCCATAGG | -0.115
152 | CACATTCC | 0.00691
153 | GTATCAAA | 0.138
154 | CCTTGGCA | -0.245
155 | AAGCCCTA | -0.147
156 | CTTAACAC | 0.152
157 | CCCTGCAA | -0.132
158 | ACGGGAGT | 0.0416
159 | AGTTATTG | 0.184
160 | CACCTCGC | 0.0546
161 | CAAGCGTA | -0.111
162 | AACTATTC | 0.0254
163 | TGTGGAAA | 0.153
164 | ATCTTTTC | 0.119
165 | ACTCCACC | -0.0503
166 | GGTGGTCA | -0.0303
167 | AGGCAGAG | -0.132
168 | ATTCCCGC | 0.165
169 | CCCGCTGA | 0.044
170 | CCCTATTC | 0.0305
171 | AGGAGCCG | -0.317
172 | AGAGAACA | 0.118
